These are yes or no findings as the source states them, for the method shown. Some entries that bind do so weakly or less than the wild type.
Target: recombinant human Ang2 (human) (UniProt O15123)
Test: Tie2-Ang2 blocking ELISA, Ang2 coated, Tie2 as competitor (FIG. 40 panel B)

The chains behind the UniProt entries cited, without tags or fusion partners. Residues count along the entry.
UniProt O15123, residues 19-496: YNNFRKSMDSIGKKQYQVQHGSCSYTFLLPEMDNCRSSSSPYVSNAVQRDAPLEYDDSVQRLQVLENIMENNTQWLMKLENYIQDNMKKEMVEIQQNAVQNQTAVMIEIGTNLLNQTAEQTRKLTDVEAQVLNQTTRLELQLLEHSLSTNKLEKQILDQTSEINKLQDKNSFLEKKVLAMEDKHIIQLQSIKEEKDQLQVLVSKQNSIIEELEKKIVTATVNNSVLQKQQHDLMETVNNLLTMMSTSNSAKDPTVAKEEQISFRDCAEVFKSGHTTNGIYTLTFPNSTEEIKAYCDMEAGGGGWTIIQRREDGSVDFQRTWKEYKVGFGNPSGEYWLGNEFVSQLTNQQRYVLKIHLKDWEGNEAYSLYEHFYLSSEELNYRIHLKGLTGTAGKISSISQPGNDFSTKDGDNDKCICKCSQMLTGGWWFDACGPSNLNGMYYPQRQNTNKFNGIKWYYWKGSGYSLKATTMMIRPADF

binding: binds
B1: bispecific molecule Bi-ZT0 (Fc fusion)
chain: SDTGRPFVEMYSEIPEIIHMTEGRELVIPCRVTSPNITVTLKKFPLDTLIPDGKRIIWDSRKGFIISNATYKEIGLLTCEATVNGHLYKTNYLTHRQTNTIIDVVLSPSHGIELSVGEKLVLNCTARTELNVGIDFNWEYPSSKHQHKKLVNRDLKTQSGSEMKKFLSTLTIDGVTRSDQGLYTCAASSGLMTKKNSTFVRVHEKESKYGPPCPPCPAPEFLGGPSVFLFPPKPKDTLMISRTPEVTCVVVDVSQEDPEVQFNWYVDGVEVHNAKTKPREEQFNSTYRVVSVLTVLHQDWLNGKEYKCKVSNKGLPSSIEKTISKAKGQPREPQVYTLPPSQEEMGGAQQEECEWDPWTCEHMGSGSATGGSGSTASSGSGSATHQEECEWDPWTCEHMGGTKNQVSLTCLVKGFYPSDIAVEWESNGQPENNYKTTPPVLDSDGSFFLYSRLTVDKSRWQEGNVFSCSVMHEALHNHYTQKSLSLSLGK
